{
  "source": "patent US9134315B2",
  "about": "“Use of the lactosylceramide synthase isoform B1,4GalT-V as a biomarker for cancer” (The Johns Hopkins University, priority 2010, dated 2015)",
  "format_in_all_cases": "cell-based, human",
  "key": {"HUVEC": {"test_system": "HUVEC", "experiment": "In vitro angiogenesis/tube formation assay in HUVEC", "conditions": "pre-treatment with inhibitor", "protocol": "HUVECs were grown on 24-well culture plates and then exposed to various agonists/antagonists. After stipulated time points, cells were trypsinized, washed in sterile PBS twice and then reconstituted in EGM™ containing 2% FBS. In vitro angiogenesis assay was performed using a commercially available kit from Chemicon International. In brief, 50 μl of ECMatrix™ were placed on 96-well plates and allowed to polymerize at 37° C. for 2 hr. […] Tubes formed were documented using phase contrast microscope (NIKON) at 10× magnification. Images were acquired using CCD camera connected to computer with online image acquiring software AxioVision software (ZEISS). For quantification of tube lengths, images were exported to NIH Image J Software (http://rsb.info.hih.gov/ij/download.html). Results are shown as the mean tube length±SD (in um) for three photographic fields per experiment/well for at least three experiments per condition."}, "PECAM-1": {"test_system": "PECAM-1", "experiment": "Western immunoblot of PECAM-1 expression in HUVEC", "conditions": "LY294002 75 μM, PDTC 25 μM for 90 min, then VEGF 25 ng/ml 4 hrs", "protocol": "(A) Western blot analysis of PECAM-1 expression in HUVECs that were pretreated with either LY294002 (75 μM), L-NAME (100 μM) or PDTC (25 μM) for 90 min, followed by incubation with VEGF (25 ng/ml) for 4 hrs. […] (C) HUVECs were pretreated with either LY294002 (75 μM), L-NAME (100 μM), PDTC (25 μM), PECAM-1 monoclonal antibody (4 μg/ml) or mouse IgG (4 μg/ml) for 90 min, followed by incubation with VEGF (25 ng/ml) for 4 hrs and then U937 (monocyte) TEM assays were performed as described below. *P<0.001 vs. vehicle control; **P<0.001 vs. […] Cells treated with agonists/antagonists were washed twice in PBS and lysed with mammalian protein extraction reagent (Pierce Biotechnology) supplemented with protease inhibitor cocktail (Roche Diagnostics GmbH). Protein content was determined using a Bradford dye binding assay kit from Bio-Rad Laboratories, Inc. (Richmond, Calif.) using BSA as standard. Twenty-five μg of cellular protein was resolved by 10% SDS-PAGE and then transferred to nitrocellulose membrane. After blocking (5% non-fat dry milk powder in Tris-buffered saline, pH 8.0 containing 0.05% Tween 20) for 1 hr at room temperature, membranes were incubated with appropriate primary antibodies. […] The x-ray films were then densitometrically scanned using a Molecular Dynamics Image Scanner and analyzed using Image Quant software."}, "U-937 cells": {"test_system": "U-937 cells", "experiment": "Transendothelial migration (TEM) of U-937 cells across HUVEC", "conditions": "LY294002 75 μM, PDTC 25 μM for 90 min, then VEGF 25 ng/ml 4 hrs", "protocol": "(A) Western blot analysis of PECAM-1 expression in HUVECs that were pretreated with either LY294002 (75 μM), L-NAME (100 μM) or PDTC (25 μM) for 90 min, followed by incubation with VEGF (25 ng/ml) for 4 hrs. […] (C) HUVECs were pretreated with either LY294002 (75 μM), L-NAME (100 μM), PDTC (25 μM), PECAM-1 monoclonal antibody (4 μg/ml) or mouse IgG (4 μg/ml) for 90 min, followed by incubation with VEGF (25 ng/ml) for 4 hrs and then U937 (monocyte) TEM assays were performed as described below. *P<0.001 vs. vehicle control; **P<0.001 vs. […] TEM assays were performed as previously described. Wei et al., 320 BIOCHEM. BIOPHYS. RES. COMMUN. 1228-35 (2004). Briefly, HUVECs (3×10^5/ml) were placed on 0.2% gelatin coated upper side of Costar® Transwell® inserts (12 mm diameter, 3.0 μm pore-size) (Corning Incorporated, Acton, Mass.) and allowed to reach confluence. Afterwards, the cells were incubated with 2% FBS plus growth factor free EGM for 6 hrs. Subsequently, 3×10^6/ml U-937 promonocytic cell line was added to the upper chamber of the insert and allowed to migrate for 10-12 hrs. At the end of incubation, the U-937 cells that migrated to the lower chamber were carefully aspirated and washed in PBS twice (1500 rpm, 10 min, 4° C.) and then counted using a Neubauer chamber."}},
  "note": "At least one structure is not confirmed: it was looked up by name or label, or the drawing left a doubt.",
  "data": [
    {"compound": "O=c1cc(N2CCOCC2)oc2c(-c3ccccc3)cccc12", "note": "[LY294002]", "values": [
      {"measurement": "Effect on VEGF-induced tube formation", "setting": "HUVEC", "result": "markedly inhibited"},
      {"measurement": "Effect on VEGF-induced PECAM-1 expression", "setting": "PECAM-1", "result": "reversed the stimulatory effect"},
      {"measurement": "Effect on VEGF-induced transendothelial migration (TEM) of U-937 cells", "setting": "U-937 cells", "result": "reversed the stimulatory effect"}
    ]}
  ]
}
